Experimental data taken from the supplement of paper PMC10849652.
The list shows a part of the results.

Sequences of proteins named here, by UniProt entry; tags and fusion partners are left off. A change or cut given only in a name is not applied to a line headed by its entry.
UniProt P03891, whole entry, looked up: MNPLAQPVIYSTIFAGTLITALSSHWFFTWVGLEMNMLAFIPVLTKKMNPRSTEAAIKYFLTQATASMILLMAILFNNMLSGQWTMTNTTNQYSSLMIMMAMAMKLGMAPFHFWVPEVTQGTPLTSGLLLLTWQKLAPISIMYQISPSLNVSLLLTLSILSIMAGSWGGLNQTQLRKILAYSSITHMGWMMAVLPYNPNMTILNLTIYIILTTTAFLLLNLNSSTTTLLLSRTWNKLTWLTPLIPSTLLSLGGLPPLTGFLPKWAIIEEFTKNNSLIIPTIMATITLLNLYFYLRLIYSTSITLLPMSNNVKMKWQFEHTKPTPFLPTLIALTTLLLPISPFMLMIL
UniProt Q9P0P8: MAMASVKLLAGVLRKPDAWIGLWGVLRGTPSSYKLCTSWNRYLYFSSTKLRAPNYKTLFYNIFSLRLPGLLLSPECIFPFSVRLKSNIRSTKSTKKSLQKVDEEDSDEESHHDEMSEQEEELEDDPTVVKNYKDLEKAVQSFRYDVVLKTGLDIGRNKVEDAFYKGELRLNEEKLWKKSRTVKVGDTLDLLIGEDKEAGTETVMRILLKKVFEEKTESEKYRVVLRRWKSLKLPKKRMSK
UniProt P84157: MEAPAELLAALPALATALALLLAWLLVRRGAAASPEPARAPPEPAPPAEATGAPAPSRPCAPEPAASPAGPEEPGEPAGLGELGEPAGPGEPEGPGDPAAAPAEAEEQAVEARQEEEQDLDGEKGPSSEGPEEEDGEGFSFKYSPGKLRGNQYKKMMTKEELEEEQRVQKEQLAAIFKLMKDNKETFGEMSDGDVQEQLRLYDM
UniProt P03897, whole entry, looked up: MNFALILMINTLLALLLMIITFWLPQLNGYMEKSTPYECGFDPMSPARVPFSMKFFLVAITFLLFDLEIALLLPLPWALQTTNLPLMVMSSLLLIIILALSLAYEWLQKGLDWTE
UniProt Q9H2K0, whole entry, looked up: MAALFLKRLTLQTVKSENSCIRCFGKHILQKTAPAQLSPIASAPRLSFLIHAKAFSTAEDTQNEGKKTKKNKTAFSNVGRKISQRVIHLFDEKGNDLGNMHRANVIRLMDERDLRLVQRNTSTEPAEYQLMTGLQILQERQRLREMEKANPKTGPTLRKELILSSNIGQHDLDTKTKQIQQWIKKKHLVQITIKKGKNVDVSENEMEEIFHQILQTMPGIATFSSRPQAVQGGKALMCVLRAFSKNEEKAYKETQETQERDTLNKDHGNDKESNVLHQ
UniProt Q9Y2K3: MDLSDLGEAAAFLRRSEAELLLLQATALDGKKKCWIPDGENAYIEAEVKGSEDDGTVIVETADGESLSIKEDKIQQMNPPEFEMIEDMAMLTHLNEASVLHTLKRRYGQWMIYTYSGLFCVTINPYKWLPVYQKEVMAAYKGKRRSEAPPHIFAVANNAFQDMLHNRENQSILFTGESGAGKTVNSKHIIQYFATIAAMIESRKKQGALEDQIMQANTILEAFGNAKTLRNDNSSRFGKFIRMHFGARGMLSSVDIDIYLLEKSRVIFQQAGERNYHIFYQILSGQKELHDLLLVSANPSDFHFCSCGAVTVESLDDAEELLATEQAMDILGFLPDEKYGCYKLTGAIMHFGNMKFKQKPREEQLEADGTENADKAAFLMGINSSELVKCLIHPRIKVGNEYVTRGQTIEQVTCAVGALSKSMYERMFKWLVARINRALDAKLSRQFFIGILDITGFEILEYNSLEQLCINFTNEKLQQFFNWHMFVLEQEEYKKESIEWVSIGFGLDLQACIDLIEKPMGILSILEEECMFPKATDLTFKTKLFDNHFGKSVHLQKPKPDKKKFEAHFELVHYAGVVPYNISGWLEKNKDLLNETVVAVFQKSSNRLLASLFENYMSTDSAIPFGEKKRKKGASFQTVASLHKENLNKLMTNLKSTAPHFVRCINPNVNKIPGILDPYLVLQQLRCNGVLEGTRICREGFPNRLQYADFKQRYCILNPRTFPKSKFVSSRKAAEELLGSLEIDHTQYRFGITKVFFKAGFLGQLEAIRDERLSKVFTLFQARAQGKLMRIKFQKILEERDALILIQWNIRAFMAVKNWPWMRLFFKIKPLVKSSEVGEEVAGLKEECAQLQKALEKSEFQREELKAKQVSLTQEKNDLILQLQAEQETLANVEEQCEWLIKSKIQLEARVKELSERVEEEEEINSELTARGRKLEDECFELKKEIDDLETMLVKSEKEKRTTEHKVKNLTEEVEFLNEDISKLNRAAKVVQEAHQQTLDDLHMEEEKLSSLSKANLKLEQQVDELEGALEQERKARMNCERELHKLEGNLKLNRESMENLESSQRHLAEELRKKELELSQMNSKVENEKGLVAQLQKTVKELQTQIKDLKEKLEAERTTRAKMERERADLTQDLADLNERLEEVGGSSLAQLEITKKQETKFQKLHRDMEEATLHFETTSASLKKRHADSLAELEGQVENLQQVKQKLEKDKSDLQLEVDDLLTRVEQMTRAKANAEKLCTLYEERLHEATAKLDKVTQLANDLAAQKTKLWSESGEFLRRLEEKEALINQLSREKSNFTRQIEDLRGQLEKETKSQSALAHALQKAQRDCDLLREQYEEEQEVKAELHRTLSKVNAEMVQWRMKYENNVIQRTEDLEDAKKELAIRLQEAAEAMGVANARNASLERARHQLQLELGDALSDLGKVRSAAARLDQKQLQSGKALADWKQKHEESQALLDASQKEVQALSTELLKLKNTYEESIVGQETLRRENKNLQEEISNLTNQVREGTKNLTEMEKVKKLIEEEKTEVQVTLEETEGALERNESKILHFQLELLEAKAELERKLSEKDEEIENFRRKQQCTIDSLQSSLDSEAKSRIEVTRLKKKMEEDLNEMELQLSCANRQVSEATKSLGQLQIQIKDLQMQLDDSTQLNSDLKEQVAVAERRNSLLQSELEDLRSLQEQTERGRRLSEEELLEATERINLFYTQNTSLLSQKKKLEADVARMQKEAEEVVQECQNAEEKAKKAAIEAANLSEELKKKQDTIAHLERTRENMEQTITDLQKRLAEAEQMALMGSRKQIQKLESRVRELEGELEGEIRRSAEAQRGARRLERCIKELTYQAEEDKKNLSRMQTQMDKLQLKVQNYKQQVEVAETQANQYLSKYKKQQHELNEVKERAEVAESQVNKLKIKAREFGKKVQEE
UniProt Q96DP5: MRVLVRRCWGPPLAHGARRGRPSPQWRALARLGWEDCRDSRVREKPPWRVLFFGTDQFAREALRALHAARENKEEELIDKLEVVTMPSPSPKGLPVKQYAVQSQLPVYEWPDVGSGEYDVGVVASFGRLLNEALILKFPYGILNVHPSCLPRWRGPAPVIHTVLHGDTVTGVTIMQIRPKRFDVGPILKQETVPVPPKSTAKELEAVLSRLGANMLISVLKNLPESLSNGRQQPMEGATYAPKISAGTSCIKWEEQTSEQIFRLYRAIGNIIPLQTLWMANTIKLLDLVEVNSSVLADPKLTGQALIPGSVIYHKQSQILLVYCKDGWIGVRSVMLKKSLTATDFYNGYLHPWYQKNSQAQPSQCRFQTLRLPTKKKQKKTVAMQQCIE
UniProt Q9H6N6: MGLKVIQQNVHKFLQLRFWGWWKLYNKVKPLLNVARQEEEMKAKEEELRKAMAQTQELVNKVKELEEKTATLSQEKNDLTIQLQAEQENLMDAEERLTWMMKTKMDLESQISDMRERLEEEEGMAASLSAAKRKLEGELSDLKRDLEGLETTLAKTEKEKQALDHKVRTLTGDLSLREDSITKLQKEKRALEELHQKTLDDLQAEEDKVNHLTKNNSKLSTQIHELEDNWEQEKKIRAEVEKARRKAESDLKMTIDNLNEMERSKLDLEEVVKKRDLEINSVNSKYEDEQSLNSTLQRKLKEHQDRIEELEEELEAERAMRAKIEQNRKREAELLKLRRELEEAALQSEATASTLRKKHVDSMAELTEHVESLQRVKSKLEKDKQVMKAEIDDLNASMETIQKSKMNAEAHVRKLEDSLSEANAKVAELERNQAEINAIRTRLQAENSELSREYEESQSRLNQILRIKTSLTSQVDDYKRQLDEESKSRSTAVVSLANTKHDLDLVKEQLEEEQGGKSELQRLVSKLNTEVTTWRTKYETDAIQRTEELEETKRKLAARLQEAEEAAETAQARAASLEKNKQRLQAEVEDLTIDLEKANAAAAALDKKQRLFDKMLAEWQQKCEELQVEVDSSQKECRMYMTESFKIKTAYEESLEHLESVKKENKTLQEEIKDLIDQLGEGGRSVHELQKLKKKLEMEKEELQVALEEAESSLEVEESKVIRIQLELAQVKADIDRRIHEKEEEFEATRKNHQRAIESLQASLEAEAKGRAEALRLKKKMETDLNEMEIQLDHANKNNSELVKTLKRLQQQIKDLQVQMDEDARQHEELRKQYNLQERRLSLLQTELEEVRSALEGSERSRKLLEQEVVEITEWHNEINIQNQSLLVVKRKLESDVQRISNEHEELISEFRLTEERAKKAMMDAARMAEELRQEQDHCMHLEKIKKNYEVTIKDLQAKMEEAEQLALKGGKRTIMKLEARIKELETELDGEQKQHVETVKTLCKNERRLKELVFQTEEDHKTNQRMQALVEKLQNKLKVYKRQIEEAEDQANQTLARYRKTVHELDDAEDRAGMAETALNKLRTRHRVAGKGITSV
UniProt Q96H55, whole entry, looked up: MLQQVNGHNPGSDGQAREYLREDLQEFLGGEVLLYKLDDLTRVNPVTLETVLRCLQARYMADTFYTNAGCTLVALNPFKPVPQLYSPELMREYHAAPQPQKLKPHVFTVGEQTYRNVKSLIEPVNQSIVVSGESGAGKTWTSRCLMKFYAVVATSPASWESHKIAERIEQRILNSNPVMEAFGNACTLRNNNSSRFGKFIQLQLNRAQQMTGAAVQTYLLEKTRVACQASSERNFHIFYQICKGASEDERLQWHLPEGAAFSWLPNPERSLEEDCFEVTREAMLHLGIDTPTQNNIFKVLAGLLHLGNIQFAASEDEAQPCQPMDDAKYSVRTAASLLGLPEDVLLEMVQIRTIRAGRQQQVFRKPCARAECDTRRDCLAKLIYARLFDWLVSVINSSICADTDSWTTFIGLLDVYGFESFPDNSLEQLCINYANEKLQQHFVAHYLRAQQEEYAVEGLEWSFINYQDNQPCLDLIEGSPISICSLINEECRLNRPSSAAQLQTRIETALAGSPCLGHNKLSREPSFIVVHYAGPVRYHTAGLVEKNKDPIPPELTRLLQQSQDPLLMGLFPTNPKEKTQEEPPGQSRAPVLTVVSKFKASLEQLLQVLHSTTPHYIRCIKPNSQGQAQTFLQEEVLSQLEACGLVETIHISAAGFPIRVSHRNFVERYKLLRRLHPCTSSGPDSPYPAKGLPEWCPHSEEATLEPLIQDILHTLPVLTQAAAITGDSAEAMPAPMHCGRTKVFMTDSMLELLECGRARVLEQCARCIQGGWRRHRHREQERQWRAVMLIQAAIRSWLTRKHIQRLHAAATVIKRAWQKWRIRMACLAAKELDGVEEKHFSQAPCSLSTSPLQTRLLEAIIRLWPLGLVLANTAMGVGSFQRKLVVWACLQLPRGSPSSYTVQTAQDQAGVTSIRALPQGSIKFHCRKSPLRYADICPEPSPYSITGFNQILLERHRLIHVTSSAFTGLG
UniProt Q93083: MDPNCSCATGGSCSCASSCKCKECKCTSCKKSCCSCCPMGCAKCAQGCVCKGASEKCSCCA
UniProt Q9BTC8: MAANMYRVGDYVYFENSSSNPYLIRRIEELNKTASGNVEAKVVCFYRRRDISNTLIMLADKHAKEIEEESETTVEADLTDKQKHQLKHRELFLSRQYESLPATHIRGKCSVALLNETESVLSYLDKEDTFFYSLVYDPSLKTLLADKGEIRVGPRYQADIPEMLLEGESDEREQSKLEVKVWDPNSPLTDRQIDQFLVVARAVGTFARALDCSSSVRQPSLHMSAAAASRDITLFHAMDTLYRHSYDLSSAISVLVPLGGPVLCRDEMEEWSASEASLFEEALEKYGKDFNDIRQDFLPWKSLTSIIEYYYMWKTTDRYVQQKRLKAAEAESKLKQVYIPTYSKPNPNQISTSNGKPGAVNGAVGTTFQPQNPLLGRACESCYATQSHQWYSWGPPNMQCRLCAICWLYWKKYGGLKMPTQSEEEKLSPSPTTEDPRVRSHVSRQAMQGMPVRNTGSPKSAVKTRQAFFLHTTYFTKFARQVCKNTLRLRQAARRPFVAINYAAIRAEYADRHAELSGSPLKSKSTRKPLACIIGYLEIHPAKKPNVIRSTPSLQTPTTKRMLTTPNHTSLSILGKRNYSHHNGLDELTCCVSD
UniProt Q9UJ68: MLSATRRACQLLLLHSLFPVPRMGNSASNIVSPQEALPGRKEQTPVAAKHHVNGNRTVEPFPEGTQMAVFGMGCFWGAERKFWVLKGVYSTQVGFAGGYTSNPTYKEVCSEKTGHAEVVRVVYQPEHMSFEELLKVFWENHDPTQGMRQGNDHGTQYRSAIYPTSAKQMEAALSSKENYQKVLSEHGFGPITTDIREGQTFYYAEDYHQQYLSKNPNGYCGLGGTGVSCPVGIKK

Experiments:
Experiment in all cases: log2 fold change, soluble protein after heating vs DMSO (PISA); higher = thermal stabilisation; K562 cells, 10 uM, 30 min; active = over 0.2 and 3.5 SD of the protein, either way, in both replicates (recomputed)
[1] = compound: CS(=O)(=O)c1ccc(-c2cnc(N)c(C(=O)Nc3ccccc3)n2)cc1
Method in brief: (§1)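 K562 cells at 2×10^6 cells/mL were treated with 10 μM compound for 30 min. Aliquots were heated for 3 min across 48°C-58°C, pooled, and extracted in PBS with 0.5% NP-40 at 4°C; soluble protein was the supernatant after 21,000xg for 90 min. Soluble protein was quantified by TMTpro 16plex LC-MS/MS with channel sums equalised, and reported as log2 fold change in thermal stability against DMSO controls, with values from duplicates.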

[2] = compound: C[C@@H]1COCCN1C2=NC(=NC(=C2)C3(CC3)S(=O)(=O)C)C4=C5C=CNC5=CC=C4
Method in brief: as §1

[3] = compound: C[C@H](C1=CC=C(C=C1)C(=O)NC2=C3C=CNC3=NC=C2)N
Method in brief: as §1

[4] = compound: C[C@H](Nc1ncnc2nc[nH]c12)c1cc2cccc(Cl)c2c(=O)n1-c1ccccc1 [duvelisib]
Method in brief: as §1

[5] = compound: Cc1cc(Nc2cc(CN3CCOCC3)c3nc(C)c(Cc4ccc(Cl)cc4F)n3n2)n[nH]1 [gandotinib]
Method in brief: as §1

[6] = compound: Cc1cc(SCc2sc(-c3ccc(C(F)(F)F)cc3)nc2C)ccc1OCC(=O)O
Method in brief: as §1

[7] = compound: Cc1ccc(C(=O)N(CCCN)[C@@H](c2nc3cc(Cl)ccc3c(=O)n2Cc2ccccc2)C(C)C)cc1 [ispinesib]
Method in brief: as §1

[8] = compound: Cc1ccc(NC(=O)c2ccc(CN3CC[C@H](N(C)C)C3)c(C(F)(F)F)c2)cc1Nc1nccc(-c2cncnc2)n1 [bafetinib]
Method in brief: as §1

[9] = compound: Cc1cccc(CC(=O)N2CCc3c2ccc(-c2cn(C)c4ncnc(N)c24)c3F)n1
Method in brief: as §1

[10] = compound: Cc1cn(-c2cc(NC(=O)c3ccc(C)c(Nc4nccc(-c5cccnc5)n4)c3)cc(C(F)(F)F)c2)cn1 [nilotinib]
Method in brief: as §1

[11] = compound: Cc1nc(Nc2n[nH]c3c2CN(C(=O)N[C@H](CN(C)C)c2ccccc2)C3(C)C)c2sccc2n1
Method in brief: as §1

[12] = compound: Cc1nc(Nc2ncc(C(=O)Nc3c(C)cccc3Cl)s2)cc(N2CCN(CCO)CC2)n1 [dasatinib]
Method in brief: as §1

[13] = compound: Cc1ncc(-c2ccnc(Nc3ccc(S(C)(=O)=O)cc3)n2)n1C(C)C
Method in brief: as §1

[14] = compound: Cn1cc(-c2ccc3c(c2)CCN3C(=O)Cc2cccc(C(F)(F)F)c2)c2c(N)ncnc21
Method in brief: as §1

[15] = compound: Cn1cc(-c2ccc3nnc(C(F)(F)c4ccc5ncccc5c4)n3n2)cn1
Method in brief: as §1

[16] = compound: Cn1cncc1[C@@](N)(c1ccc(Cl)cc1)c1ccc2c(c1)c(-c1cccc(Cl)c1)cc(=O)n2C [tipifarnib]
Method in brief: as §1

[17] = compound: FC(F)(F)c1ccc(/C=C/c2nc(COc3ccc(CCCCn4ccnn4)cc3)co2)cc1 [mubritinib]
Method in brief: as §1

[18] = compound: C[C@@H](Oc1cc(-c2cnn(C3CCNCC3)c2)cnc1N)c1c(Cl)ccc(F)c1Cl [crizotinib]
Method in brief: as §1

[19] = compound: Cc1ccc(-n2nc(C(C)(C)C)cc2NC(=O)Nc2ccc(OCCN3CCOCC3)c3ccccc23)cc1 [doramapimod]
Method in brief: as §1

[20] = compound: Cc1cc(Nc2cc(N3CCN(C)CC3)nc(Sc3ccc(NC(=O)C4CC4)cc3)n2)n[nH]1 [tozasertib]
Method in brief: as §1

Measured: log2 fold change

MTIF2 (UniProt P46199)
inactive: [1] -0.137 | [2] 0.337

MTHFD1L (UniProt B7ZM99)
inactive: [3] 0.257 | [4] 0.158 | [5] -0.029 | [6] -0.039 | [7] -0.074 | [8] -0.057 | [9] -0.077 | [10] -0.061 | [11] 0.058 | [12] -0.088 | [13] -0.06 | [14] 0.035 | [15] 0.014 | [16] -0.056 | [17] 0.055

MT-ND2 (UniProt P03891)
inactive: [18] 0.096 | [3] -0.028 | [5] -0.064 | [6] 0.101 | [19] -0.141 | [7] 0.336 | [8] 0 | [9] -0.173 | [10] -0.006 | [11] 0.018 | [13] -0.171 | [14] 0.279 | [15] 0.11 | [16] 0.383 | [17] -0.01
active: [12] -0.459

MTRES1 (UniProt Q9P0P8)
inactive: [2] 0.124 | [20] -0.114 | [16] 0.045 | [17] 0.022

Quoted at random: two entries already listed, in no set order.
MTRES1 (UniProt Q9P0P8)
inactive: [2] 0.124 | [20] -0.114 | [16] 0.045 | [17] 0.022

MTHFD1L (UniProt B7ZM99)
inactive: [3] 0.257 | [4] 0.158 | [5] -0.029 | [6] -0.039 | [7] -0.074 | [8] -0.057 | [9] -0.077 | [10] -0.061 | [11] 0.058 | [12] -0.088 | [13] -0.06 | [14] 0.035 | [15] 0.014 | [16] -0.056 | [17] 0.055

Following part:

MXRA7 isoform 3 (UniProt P84157)
inactive: [7] -0.092 | [15] -0.078 | [16] 0.011

MT-ND3 (UniProt P03897)
inactive: [18] 0.018 | [19] 0.079 | [7] 0.015 | [8] 0.229 | [10] -0.021 | [11] 0.158 | [13] -0.04 | [15] 0.121

MTIF3 (UniProt Q9H2K0)
inactive: [1] -0.152 | [2] -0.027 | [3] 0.041 | [4] 0.027 | [5] 0.045 | [6] 0.041 | [8] 0.021 | [9] 0.021 | [10] -0.069 | [11] -0.196 | [12] -0.015 | [13] -0.073 | [14] -0.085

MYH15 (UniProt Q9Y2K3)
inactive: [1] 0.235 | [8] -0.302 | [10] -0.002 | [11] 0.009 | [13] -0.373 | [17] 0.101

MTFMT (UniProt Q96DP5)
inactive: [1] 0.299 | [2] 0.272 | [20] -0.053 | [16] -0.308

MYH3 (UniProt P11055)
inactive: [3] -0.09 | [5] -0.063 | [20] -0.097 | [8] -0.067 | [9] -0.035 | [10] 0.003 | [11] 0.04 | [13] 0.019 | [14] 0.047

MYH16 (UniProt Q9H6N6)
inactive: [1] -0.33 | [18] -0.097 | [3] -0.012 | [5] -0.279 | [19] 0.399 | [8] 0.482 | [9] 0.303 | [10] 0.061 | [11] 0.062 | [13] 0.088 | [14] 0.068 | [16] -0.248 | [17] -0.025

MYO19 (UniProt Q96H55)
inactive: [18] 0.047 | [2] -0.215 | [3] 0.491 | [5] -0.081 | [6] 0.158 | [19] 0.066 | [7] -0.065 | [8] 0.007 | [9] -0.068 | [10] -0.022 | [11] -0.045 | [12] -0.111 | [13] 0.038 | [14] -0.099 | [15] -0.069 | [16] 0.048

MTSS1 isoform 5 (UniProt O43312)
inactive: [20] 0.116 | [16] -0.046 | [17] -0.358

MT1L (UniProt Q93083)
inactive: [4] -0.108 | [5] -0.293 | [20] 0.091 | [6] -0.159 | [7] 0.012 | [9] -0.159 | [10] -0.151 | [11] -0.091 | [12] 0.071 | [13] 0.169 | [15] -0.249 | [16] -0.03 | [17] -0.157

MTRF1L (UniProt Q9UGC7)
inactive: [2] -0.068 | [3] -0.21 | [4] 0.043 | [5] 0.04 | [20] -0.021 | [6] -0.06 | [7] 0.087 | [8] -0.022 | [9] -0.027 | [10] -0.063 | [11] -0.093 | [12] 0.114 | [13] 0.004 | [14] 0.045 | [15] 0.035 | [16] 0.019 | [17] 0.034

MTMR4 (UniProt Q9NYA4)
inactive: [1] 0.001 | [18] -0.266 | [19] -0.059 | [7] -0.234 | [15] 0.069

MYBBP1A isoform 2 (UniProt Q9BQG0)
inactive: [18] -0.346 | [2] -0.177 | [3] 0.489 | [4] -0.06 | [5] 0.003 | [20] 0.372 | [6] 0.048 | [19] 0.165 | [7] 0.021 | [8] 0.011 | [9] -0.028 | [10] -0.164 | [11] -0.13 | [12] -0.032 | [13] -0.276 | [14] -0.126 | [15] 0.021

MTA3 (UniProt Q9BTC8)
inactive: [1] -0.142 | [2] -0.127 | [4] 0.135 | [5] -0.054 | [20] -0.036 | [6] 0.032 | [9] 0.086 | [12] -0.01 | [16] 0.193

MSRA (UniProt Q9UJ68)
inactive: [4] 0.128 | [6] 0.128 | [12] -0.223 | [16] -0.107
